The other results are listed elsewhere or left out.
Assays:
Experiment in all cases: log2 fold change, soluble protein after heating vs DMSO (PISA); higher = thermal stabilisation; K562 cells, 10 uM, 30 min; active = over 0.2 and 3.5 SD of the protein, either way, in both replicates (recomputed)
crizotinib = compound: C[C@@H](Oc1cc(-c2cnn(C3CCNCC3)c2)cnc1N)c1c(Cl)ccc(F)c1Cl [crizotinib]
Outline: (§1)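 Thermal stability values are relative to control samples and come from duplicates. They are expressed as log2 fold changes. For measurement, K562 cells (2×10^6 cells/mL) received 10 μM compound for 30 min, and aliquots were heated for 3 min over 48°C-58°C, pooled, and extracted at 4°C in PBS with 0.5% NP-40. Soluble protein, the supernatant after 21,000xg for 90 min, was quantified by TMTpro 16plex LC-MS/MS with equalised channel sums.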

Sequences of proteins named here, by UniProt entry; tags and fusion partners are left off. A change or cut given only in a name is not applied to a line headed by its entry.
UniProt Q6ZVX7: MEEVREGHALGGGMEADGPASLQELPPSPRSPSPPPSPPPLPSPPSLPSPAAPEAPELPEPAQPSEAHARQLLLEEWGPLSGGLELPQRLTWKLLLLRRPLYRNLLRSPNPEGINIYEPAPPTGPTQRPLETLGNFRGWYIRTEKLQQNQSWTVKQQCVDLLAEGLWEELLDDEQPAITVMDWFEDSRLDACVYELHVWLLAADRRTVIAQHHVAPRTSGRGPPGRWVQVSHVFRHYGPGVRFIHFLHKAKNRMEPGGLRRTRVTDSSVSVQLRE
NBDY, A0A0U1RRE5, UniProt A0A0U1RRE5, whole entry, looked up: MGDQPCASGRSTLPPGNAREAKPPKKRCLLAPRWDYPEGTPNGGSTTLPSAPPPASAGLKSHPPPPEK
UniProt Q9BQ15: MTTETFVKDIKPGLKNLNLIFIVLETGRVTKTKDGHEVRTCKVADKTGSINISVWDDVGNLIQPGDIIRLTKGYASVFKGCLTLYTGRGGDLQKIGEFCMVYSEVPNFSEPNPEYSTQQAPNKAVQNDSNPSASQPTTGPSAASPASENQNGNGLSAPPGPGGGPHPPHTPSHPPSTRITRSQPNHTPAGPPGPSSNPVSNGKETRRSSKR
UniProt O43677, whole entry, looked up: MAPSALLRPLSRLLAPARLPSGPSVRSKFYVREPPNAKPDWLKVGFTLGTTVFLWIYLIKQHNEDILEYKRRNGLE
UniProt Q9NV92: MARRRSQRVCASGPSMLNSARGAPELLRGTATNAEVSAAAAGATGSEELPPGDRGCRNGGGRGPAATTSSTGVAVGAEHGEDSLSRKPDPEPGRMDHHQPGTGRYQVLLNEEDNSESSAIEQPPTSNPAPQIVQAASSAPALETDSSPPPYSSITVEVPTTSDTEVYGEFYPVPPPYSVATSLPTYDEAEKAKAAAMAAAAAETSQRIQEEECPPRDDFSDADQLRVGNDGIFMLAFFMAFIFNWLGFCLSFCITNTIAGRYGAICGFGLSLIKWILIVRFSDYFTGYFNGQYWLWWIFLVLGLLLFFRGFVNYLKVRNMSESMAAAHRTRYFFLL
UniProt Q92597: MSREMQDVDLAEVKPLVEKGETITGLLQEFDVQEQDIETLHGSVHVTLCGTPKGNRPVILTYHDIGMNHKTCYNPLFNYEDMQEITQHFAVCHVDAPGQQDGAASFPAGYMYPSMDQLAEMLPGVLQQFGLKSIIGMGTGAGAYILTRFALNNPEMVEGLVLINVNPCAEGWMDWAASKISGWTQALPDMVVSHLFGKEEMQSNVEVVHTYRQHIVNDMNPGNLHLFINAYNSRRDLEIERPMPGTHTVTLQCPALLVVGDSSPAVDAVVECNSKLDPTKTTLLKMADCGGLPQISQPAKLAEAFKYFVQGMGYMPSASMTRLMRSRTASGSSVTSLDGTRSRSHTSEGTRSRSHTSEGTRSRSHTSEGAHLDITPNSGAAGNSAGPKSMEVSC
UniProt Q96PY6: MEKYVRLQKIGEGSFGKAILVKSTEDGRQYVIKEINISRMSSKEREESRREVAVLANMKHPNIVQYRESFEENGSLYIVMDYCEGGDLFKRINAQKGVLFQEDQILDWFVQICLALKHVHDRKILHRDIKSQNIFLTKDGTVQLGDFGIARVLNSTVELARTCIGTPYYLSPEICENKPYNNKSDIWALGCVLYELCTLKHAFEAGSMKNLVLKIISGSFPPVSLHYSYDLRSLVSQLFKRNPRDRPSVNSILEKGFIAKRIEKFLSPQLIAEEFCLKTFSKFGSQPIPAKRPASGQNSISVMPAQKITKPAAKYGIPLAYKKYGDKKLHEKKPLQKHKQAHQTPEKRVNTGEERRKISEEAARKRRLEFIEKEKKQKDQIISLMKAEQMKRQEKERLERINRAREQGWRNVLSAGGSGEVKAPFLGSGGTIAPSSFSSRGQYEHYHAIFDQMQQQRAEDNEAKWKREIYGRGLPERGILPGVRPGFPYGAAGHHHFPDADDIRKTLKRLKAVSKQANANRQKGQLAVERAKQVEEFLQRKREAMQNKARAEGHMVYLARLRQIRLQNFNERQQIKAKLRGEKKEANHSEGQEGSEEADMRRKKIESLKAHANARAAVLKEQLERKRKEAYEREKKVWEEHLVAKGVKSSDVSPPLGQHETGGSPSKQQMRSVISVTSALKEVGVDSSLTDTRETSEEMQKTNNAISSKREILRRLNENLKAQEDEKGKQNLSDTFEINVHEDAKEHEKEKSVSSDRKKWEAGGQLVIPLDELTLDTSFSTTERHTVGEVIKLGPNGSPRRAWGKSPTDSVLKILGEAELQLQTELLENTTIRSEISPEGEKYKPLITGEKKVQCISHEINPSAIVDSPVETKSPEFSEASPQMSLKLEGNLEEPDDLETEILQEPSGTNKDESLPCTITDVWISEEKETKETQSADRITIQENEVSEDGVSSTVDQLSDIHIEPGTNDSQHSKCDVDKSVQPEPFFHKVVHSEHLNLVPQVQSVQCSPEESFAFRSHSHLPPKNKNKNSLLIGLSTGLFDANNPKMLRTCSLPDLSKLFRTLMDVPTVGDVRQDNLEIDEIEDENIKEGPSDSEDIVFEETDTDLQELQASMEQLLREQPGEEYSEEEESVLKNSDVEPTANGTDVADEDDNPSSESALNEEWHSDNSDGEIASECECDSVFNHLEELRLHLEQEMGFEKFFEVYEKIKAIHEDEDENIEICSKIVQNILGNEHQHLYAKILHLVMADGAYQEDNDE
NA, A0A494C071, UniProt A0A494C071, whole entry, looked up: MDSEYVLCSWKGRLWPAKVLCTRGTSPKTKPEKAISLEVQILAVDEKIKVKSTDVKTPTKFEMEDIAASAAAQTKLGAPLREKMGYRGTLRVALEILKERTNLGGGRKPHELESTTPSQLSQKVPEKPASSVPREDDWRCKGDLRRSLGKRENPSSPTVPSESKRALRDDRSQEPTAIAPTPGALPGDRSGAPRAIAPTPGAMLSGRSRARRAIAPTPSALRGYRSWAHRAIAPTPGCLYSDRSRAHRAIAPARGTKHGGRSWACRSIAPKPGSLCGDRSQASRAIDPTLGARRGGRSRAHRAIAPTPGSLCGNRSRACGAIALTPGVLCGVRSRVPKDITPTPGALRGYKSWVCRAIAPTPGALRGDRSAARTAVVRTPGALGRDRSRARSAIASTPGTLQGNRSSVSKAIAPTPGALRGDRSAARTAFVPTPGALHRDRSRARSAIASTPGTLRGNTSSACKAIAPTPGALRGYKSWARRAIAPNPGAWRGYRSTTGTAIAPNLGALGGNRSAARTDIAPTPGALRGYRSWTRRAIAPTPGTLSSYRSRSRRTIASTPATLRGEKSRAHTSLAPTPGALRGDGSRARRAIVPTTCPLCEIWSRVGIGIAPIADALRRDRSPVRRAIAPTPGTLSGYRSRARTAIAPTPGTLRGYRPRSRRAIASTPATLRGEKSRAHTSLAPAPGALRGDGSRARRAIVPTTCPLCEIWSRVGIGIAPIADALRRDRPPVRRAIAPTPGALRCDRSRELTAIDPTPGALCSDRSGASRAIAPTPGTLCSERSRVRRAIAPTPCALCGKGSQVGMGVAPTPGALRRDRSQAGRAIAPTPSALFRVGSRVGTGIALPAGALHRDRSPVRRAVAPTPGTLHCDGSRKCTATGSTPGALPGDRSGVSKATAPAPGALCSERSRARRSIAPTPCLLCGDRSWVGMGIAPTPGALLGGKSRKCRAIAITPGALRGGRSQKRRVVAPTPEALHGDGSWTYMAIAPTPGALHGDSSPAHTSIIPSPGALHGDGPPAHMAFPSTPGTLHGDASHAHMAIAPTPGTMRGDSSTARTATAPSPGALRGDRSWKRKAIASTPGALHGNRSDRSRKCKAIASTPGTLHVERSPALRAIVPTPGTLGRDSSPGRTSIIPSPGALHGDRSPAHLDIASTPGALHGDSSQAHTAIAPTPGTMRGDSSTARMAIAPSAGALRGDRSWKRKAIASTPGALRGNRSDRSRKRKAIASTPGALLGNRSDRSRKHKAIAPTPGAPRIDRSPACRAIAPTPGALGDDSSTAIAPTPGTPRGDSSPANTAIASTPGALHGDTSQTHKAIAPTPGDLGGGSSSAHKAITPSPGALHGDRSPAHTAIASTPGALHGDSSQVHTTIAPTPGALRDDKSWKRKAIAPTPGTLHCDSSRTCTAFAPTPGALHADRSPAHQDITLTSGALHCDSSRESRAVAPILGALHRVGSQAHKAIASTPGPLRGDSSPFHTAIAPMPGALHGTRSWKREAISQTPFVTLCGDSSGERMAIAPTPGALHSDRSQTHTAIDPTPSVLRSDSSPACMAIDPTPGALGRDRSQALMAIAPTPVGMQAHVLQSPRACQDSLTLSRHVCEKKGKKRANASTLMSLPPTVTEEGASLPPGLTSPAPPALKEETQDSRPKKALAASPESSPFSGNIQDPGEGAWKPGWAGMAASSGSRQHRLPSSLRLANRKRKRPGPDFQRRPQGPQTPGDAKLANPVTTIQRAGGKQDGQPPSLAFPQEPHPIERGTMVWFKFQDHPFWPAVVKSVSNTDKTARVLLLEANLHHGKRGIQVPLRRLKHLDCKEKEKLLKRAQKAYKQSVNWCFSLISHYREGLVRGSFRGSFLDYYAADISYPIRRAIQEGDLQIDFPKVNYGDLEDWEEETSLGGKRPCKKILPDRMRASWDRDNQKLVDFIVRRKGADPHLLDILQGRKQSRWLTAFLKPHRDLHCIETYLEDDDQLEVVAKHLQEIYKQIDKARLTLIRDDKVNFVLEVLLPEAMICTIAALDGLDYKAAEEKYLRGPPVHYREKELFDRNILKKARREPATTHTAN
UniProt Q69YL0: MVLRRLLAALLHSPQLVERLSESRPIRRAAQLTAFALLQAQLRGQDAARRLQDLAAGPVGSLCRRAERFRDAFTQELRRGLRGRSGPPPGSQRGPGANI
UniProt Q15788: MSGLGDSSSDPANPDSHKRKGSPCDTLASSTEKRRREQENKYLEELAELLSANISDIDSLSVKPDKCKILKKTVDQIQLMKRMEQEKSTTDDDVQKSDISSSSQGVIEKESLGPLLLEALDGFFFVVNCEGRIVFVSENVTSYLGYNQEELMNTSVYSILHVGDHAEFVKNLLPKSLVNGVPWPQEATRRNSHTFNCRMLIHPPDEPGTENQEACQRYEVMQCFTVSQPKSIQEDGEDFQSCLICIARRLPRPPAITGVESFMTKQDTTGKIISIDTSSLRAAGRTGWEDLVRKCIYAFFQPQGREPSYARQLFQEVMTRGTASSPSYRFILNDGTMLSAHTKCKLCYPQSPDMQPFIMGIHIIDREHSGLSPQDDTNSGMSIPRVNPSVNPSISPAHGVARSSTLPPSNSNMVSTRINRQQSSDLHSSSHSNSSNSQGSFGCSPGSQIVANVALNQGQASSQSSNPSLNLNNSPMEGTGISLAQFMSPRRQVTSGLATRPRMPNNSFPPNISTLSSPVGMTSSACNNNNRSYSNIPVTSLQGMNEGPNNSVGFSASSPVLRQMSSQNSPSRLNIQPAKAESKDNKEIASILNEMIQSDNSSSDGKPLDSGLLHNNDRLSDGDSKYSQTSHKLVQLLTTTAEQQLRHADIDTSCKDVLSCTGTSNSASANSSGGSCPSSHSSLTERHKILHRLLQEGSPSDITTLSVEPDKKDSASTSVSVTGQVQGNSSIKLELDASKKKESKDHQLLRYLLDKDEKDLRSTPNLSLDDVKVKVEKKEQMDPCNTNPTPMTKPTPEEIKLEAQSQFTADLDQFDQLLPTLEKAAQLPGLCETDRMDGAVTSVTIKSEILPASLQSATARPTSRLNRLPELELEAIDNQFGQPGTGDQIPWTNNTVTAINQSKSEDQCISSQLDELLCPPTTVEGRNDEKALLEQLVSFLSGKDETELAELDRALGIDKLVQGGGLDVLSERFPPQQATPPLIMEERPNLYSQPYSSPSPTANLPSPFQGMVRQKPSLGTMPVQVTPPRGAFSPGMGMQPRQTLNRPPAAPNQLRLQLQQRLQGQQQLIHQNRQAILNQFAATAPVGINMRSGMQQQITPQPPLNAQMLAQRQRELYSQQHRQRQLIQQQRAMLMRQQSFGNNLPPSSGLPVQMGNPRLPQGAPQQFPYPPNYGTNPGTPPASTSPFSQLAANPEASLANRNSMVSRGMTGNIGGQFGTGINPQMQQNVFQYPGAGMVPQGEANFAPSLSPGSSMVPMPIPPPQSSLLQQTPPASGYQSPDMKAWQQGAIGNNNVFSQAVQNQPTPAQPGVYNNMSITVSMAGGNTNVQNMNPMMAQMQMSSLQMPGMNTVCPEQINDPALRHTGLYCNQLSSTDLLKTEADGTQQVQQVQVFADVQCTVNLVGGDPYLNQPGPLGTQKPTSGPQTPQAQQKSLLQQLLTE
UniProt Q02083: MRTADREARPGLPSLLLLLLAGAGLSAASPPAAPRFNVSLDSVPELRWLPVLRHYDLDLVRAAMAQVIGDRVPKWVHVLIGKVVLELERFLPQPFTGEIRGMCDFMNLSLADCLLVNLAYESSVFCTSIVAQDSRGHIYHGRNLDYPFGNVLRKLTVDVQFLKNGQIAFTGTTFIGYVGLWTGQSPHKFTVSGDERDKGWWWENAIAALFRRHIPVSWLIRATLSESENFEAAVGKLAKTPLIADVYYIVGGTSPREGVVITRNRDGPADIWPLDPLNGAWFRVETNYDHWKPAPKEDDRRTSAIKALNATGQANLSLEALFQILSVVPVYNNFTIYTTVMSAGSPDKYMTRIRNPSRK

[1] = compound: C[C@H](C1=CC=C(C=C1)C(=O)NC2=C3C=CNC3=NC=C2)N
Outline: as §1

gandotinib = compound: Cc1cc(Nc2cc(CN3CCOCC3)c3nc(C)c(Cc4ccc(Cl)cc4F)n3n2)n[nH]1 [gandotinib]
Outline: as §1

doramapimod = compound: Cc1ccc(-n2nc(C(C)(C)C)cc2NC(=O)Nc2ccc(OCCN3CCOCC3)c3ccccc23)cc1 [doramapimod]
Outline: as §1

ispinesib = compound: Cc1ccc(C(=O)N(CCCN)[C@@H](c2nc3cc(Cl)ccc3c(=O)n2Cc2ccccc2)C(C)C)cc1 [ispinesib]
Outline: as §1

[2] = compound: Cc1cccc(CC(=O)N2CCc3c2ccc(-c2cn(C)c4ncnc(N)c24)c3F)n1
Outline: as §1

[3] = compound: Cn1cc(-c2ccc3c(c2)CCN3C(=O)Cc2cccc(C(F)(F)F)c2)c2c(N)ncnc21
Outline: as §1

[4] = compound: Cn1cc(-c2ccc3nnc(C(F)(F)c4ccc5ncccc5c4)n3n2)cn1
Outline: as §1

mubritinib = compound: FC(F)(F)c1ccc(/C=C/c2nc(COc3ccc(CCCCn4ccnn4)cc3)co2)cc1 [mubritinib]
Outline: as §1

[5] = compound: CS(=O)(=O)c1ccc(-c2cnc(N)c(C(=O)Nc3ccccc3)n2)cc1
Outline: as §1

[6] = compound: Cc1cc(SCc2sc(-c3ccc(C(F)(F)F)cc3)nc2C)ccc1OCC(=O)O
Outline: as §1

nilotinib = compound: Cc1cn(-c2cc(NC(=O)c3ccc(C)c(Nc4nccc(-c5cccnc5)n4)c3)cc(C(F)(F)F)c2)cn1 [nilotinib]
Outline: as §1

[7] = compound: Cc1nc(Nc2n[nH]c3c2CN(C(=O)N[C@H](CN(C)C)c2ccccc2)C3(C)C)c2sccc2n1
Outline: as §1

dasatinib = compound: Cc1nc(Nc2ncc(C(=O)Nc3c(C)cccc3Cl)s2)cc(N2CCN(CCO)CC2)n1 [dasatinib]
Outline: as §1

[8] = compound: Cc1ncc(-c2ccnc(Nc3ccc(S(C)(=O)=O)cc3)n2)n1C(C)C
Outline: as §1

tipifarnib = compound: Cn1cncc1[C@@](N)(c1ccc(Cl)cc1)c1ccc2c(c1)c(-c1cccc(Cl)c1)cc(=O)n2C [tipifarnib]
Outline: as §1

[9] = compound: C[C@@H]1COCCN1C2=NC(=NC(=C2)C3(CC3)S(=O)(=O)C)C4=C5C=CNC5=CC=C4
Outline: as §1

duvelisib = compound: C[C@H](Nc1ncnc2nc[nH]c12)c1cc2cccc(Cl)c2c(=O)n1-c1ccccc1 [duvelisib]
Outline: as §1

bafetinib = compound: Cc1ccc(NC(=O)c2ccc(CN3CC[C@H](N(C)C)C3)c(C(F)(F)F)c2)cc1Nc1nccc(-c2cncnc2)n1 [bafetinib]
Outline: as §1

tozasertib = compound: Cc1cc(Nc2cc(N3CCN(C)CC3)nc(Sc3ccc(NC(=O)C4CC4)cc3)n2)n[nH]1 [tozasertib]
Outline: as §1

Measured: log2 fold change

NBEAL2 (UniProt Q6ZNJ1)
inactive: crizotinib 0.002 | [1] 0.142 | gandotinib 0.09 | doramapimod 0.088 | ispinesib -0.304 | [2] -0.001 | [3] 0.054 | [4] -0.247 | mubritinib 0.05

NCOA5 (UniProt Q9HCD5)
active: [7] -0.92
inactive: [5] -0.005 | crizotinib -0.131 | gandotinib 0.05 | [6] 0.052 | doramapimod 0.168 | ispinesib 0.02 | [2] -0.04 | nilotinib -0.428 | dasatinib -0.043 | [8] 0.218 | [4] -0.203 | tipifarnib 0.164

NCCRP1 (UniProt Q6ZVX7)
inactive: crizotinib 0.115 | [9] 0.265 | duvelisib -0.173 | [6] -0.266 | doramapimod -0.173 | dasatinib -0.542 | mubritinib -0.321

NCKAP5L (UniProt Q9HCH0)
inactive: crizotinib 0.005 | duvelisib -0.092 | [6] 0.094 | doramapimod 0.011 | ispinesib 0.02 | dasatinib -0.069 | [4] 0.092 | tipifarnib -0.21 | mubritinib 0.25

NAP1L4 (UniProt C9J6D1)
inactive: [5] 0.078 | crizotinib 0.033 | duvelisib 0.014 | [6] -0.029 | doramapimod -0.036 | dasatinib 0.085

NA (UniProt J3KR12)
inactive: crizotinib 0.251 | [9] 0.061 | doramapimod -0.017 | ispinesib 0.006 | bafetinib 0.338 | nilotinib 0.208 | [7] -0.221 | [8] -0.196 | [4] -0.112 | mubritinib 0.16

NDUFA3 (UniProt O95167)
inactive: [5] 0.019 | [9] 0.078 | [1] 0.088 | duvelisib 0.153 | gandotinib 0.04 | tozasertib -0.059 | [6] -0.127 | ispinesib -0.076 | bafetinib -0.163 | [2] -0.068 | nilotinib -0.043 | [7] -0.001 | dasatinib -0.055 | [8] -0.095 | [3] 0.117 | [4] 0.174 | tipifarnib 0.124 | mubritinib 0.12

NBDY, A0A0U1RRE5
inactive: [9] 0.299 | [1] -0.086 | duvelisib 0.147 | gandotinib -0.025 | tozasertib -0.101 | [6] 0.001 | ispinesib 0.035 | bafetinib -0.01 | [2] -0.16 | nilotinib -0.033 | [7] 0.021 | dasatinib 0.03 | [8] -0.108 | [3] 0.011 | [4] -0.024 | tipifarnib -0.094 | mubritinib -0.039

NABP2 (UniProt Q9BQ15)
inactive: duvelisib 0.071 | [6] 0.064 | dasatinib -0.077

NAA40 (UniProt Q86UY6)
inactive: crizotinib 0.075 | [9] -0.234 | [1] 0.606 | gandotinib 0.092 | tozasertib 0.218 | doramapimod 0.156 | ispinesib -0.167 | [2] -0.084 | [3] -0.22 | [4] -0.158

NDUFC1 (UniProt O43677)
inactive: [9] 0.301 | [1] -0.046 | [3] 0.009

NAP1L1 (UniProt B7Z9C2)
inactive: crizotinib -0.015 | gandotinib 0.041 | [6] 0.433 | doramapimod 0.155 | bafetinib -0.11 | [2] -0.249 | nilotinib -0.011 | [7] -0.002 | dasatinib -0.347 | [8] -0.043 | mubritinib 0.049

NDFIP2 (UniProt Q9NV92)
inactive: [5] 0.171 | tozasertib 0.091 | ispinesib 0.184 | [4] -0.106 | tipifarnib 0.348 | mubritinib -0.231

NANP (UniProt Q8TBE9)
inactive: [5] 0.033 | [9] 0.043 | [1] 0.033 | duvelisib 0.077 | gandotinib 0.019 | tozasertib 0.073 | [6] 0.09 | bafetinib 0.11 | [2] -0.09 | nilotinib -0.009 | [7] 0.006 | dasatinib -0.016 | [8] 0.141 | [3] 0.03 | tipifarnib -0.155 | mubritinib 0.154

NDRG1 (UniProt Q92597)
inactive: tipifarnib -0.193

NEK1 isoform 3 (UniProt Q96PY6)
inactive: crizotinib -0.191 | [1] 0.142 | duvelisib -0.073 | [6] -0.144 | doramapimod -0.064 | ispinesib 0.016 | dasatinib -0.215 | [3] -0.107 | [4] -0.112

NA, A0A494C071
inactive: [9] 0.137 | [1] 0.043 | gandotinib -0.352 | [6] -0.102 | doramapimod 0.104 | [2] -0.057 | nilotinib 0.074 | [7] 0.329 | dasatinib 0.029 | [8] -0.439 | [3] 0.001 | mubritinib 0.094
active: crizotinib -0.887 | bafetinib -1.12

NA isoform 3 (UniProt Q4G0T1)
inactive: [5] 0.023 | crizotinib -0.004 | [1] -0.157 | [6] -0.001 | doramapimod 0.077 | ispinesib -0.099 | bafetinib -0.198 | nilotinib -0.021 | [7] -0.009 | dasatinib -0.093 | [8] 0.01 | [3] -0.065 | [4] 0.059 | tipifarnib -0.066 | mubritinib -0.066

NA, A0A1W2PSA9
inactive: [1] 0.041 | gandotinib 0.403 | [6] -0.371 | ispinesib -0.059 | [2] 0.022 | dasatinib 0.289 | [3] 0.218 | [4] -0.118

NA (UniProt B2RBV5)
inactive: [5] -0.027 | [9] 0.064 | gandotinib 0 | bafetinib -0.005 | [2] -0.084 | nilotinib -0.433 | [8] -0.195 | tipifarnib 0.075 | mubritinib 0.04
active: [7] 0.828

NDEL1 isoform 2 (UniProt Q9GZM8)
inactive: [9] -0.031 | [1] 0.017 | duvelisib 0.087 | gandotinib -0.017 | tozasertib -0.045 | [6] 0.156 | ispinesib -0.076 | bafetinib -0.136 | [2] 0.008 | nilotinib 0.021 | [7] 0.017 | dasatinib -0.004 | [8] -0.107 | [3] 0.051 | [4] 0.049 | tipifarnib -0.051 | mubritinib 0.052

NASP isoform 2 (UniProt P49321)
inactive: mubritinib -0.347

NDUFA7 (UniProt M0R0N0)
inactive: [5] 0.095 | bafetinib -0.052

MYOF (UniProt Q9NZM1)
inactive: duvelisib -0.031 | [6] 0.165 | dasatinib -0.091

NCOA4 isoform 4 (UniProt Q13772)
inactive: [1] 0.473 | gandotinib 0.246 | ispinesib -0.142 | [2] 0.006 | [3] -0.029 | [4] -0.032

NCBP2AS2 (UniProt Q69YL0)
active: ispinesib -0.48 | bafetinib -0.504
inactive: [5] -0.092 | [1] -0.027 | gandotinib -0.064 | [6] 0.044 | [2] -0.018 | nilotinib 0 | [7] 0.045 | dasatinib -0.021 | [8] 0.031 | [3] 0.002 | [4] 0.021 | tipifarnib -0.001 | mubritinib 0.006

NCOA1 (UniProt Q15788)
inactive: [9] 0.056 | [1] -0.064 | duvelisib -0.072 | tozasertib -0.025 | ispinesib -0.037 | bafetinib -0.118 | nilotinib -0.159 | [7] -0.08 | dasatinib -0.096 | [8] -0.072 | [3] 0.135 | [4] 0.058 | mubritinib 0.183

NAAA (UniProt Q02083)
inactive: [5] 0.04 | crizotinib -0.189 | [1] -0.176 | gandotinib 0.127 | doramapimod 0.014 | ispinesib 0.191 | [2] -0.013 | nilotinib -0.028 | [7] 0.04 | [8] 0.081 | [3] -0.081 | [4] -0.093 | tipifarnib 0.011 | mubritinib 0.01

NCKIPSD (UniProt Q9NZQ3)
inactive: gandotinib -0.06 | ispinesib -0.111 | [2] 0.04 | [4] 0.084 | tipifarnib -0.025

NCAPH2 isoform 4 (UniProt Q6IBW4)
inactive: crizotinib -0.081 | [9] -0.135 | doramapimod -0.147 | nilotinib -0.076 | [7] -0.108 | [8] -0.145 | mubritinib -0.001

Two successive records out of the list so far, quoted:
NAAA (UniProt Q02083)
inactive: [5] 0.04 | crizotinib -0.189 | [1] -0.176 | gandotinib 0.127 | doramapimod 0.014 | ispinesib 0.191 | [2] -0.013 | nilotinib -0.028 | [7] 0.04 | [8] 0.081 | [3] -0.081 | [4] -0.093 | tipifarnib 0.011 | mubritinib 0.01

NCKIPSD (UniProt Q9NZQ3)
inactive: gandotinib -0.06 | ispinesib -0.111 | [2] 0.04 | [4] 0.084 | tipifarnib -0.025

(continued)

NEB isoform 3 (UniProt P20929)
inactive: [9] -0.483 | [1] 0.005 | duvelisib -0.033 | gandotinib -0.04 | [6] -0.103 | ispinesib 0.158 | bafetinib -0.072 | [2] 0.006 | nilotinib -0.043 | [7] 0.011 | dasatinib 0.198 | [8] -0.018 | [3] -0.096 | [4] 0.028

NATD1 (UniProt Q8N6N6)
inactive: nilotinib -0.084 | [7] -0.027 | [8] 0.13 | tipifarnib 0.097 | mubritinib -0.169
